Measured values taken from publication PMC7793125.
No constants are given. Whether binding was seen depends on the method and setting.

The chains behind the UniProt entries cited, without tags or fusion partners. Residues count along the entry.
UniProt Q92841, residues 135-555: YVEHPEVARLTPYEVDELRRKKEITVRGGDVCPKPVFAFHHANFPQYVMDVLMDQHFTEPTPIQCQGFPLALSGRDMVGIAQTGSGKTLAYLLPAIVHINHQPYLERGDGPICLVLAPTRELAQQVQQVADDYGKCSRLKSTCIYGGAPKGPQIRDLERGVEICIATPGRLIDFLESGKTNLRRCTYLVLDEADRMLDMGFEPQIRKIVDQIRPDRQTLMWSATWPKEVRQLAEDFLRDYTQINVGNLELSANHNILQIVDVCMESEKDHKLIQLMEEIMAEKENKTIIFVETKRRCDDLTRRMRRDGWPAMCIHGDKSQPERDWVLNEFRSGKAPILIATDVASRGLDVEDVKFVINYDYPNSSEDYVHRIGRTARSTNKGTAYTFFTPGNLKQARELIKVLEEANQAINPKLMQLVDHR

Biological target: DDX17 helicase domain (DDX17_(135–555)) (human) (UniProt Q92841)
Assay: AUC; sedimentation velocity, protein at 0.5 OD280 (10.2 µM), 50 mM Tris, 150 mM NaCl, 5% glycerol, pH 8, 20 °C, 40,000 rpm; both purified

binding: no binding (tested: 10.2 µM)
Substance: DDX17 helicase domain (DDX17_(135–555)) (from UniProt Q92841 135-555) (domain or fragment)
